Assay results from US6491729B1.

Columns and labels:
[1] = color fastness to abrasion, Example 8; settings: dyed fabric of nylon
[2] = surface of dyed fabric observed by scanning electron microscope (SEM) after dry-cleaning; settings: dyed fabric of nylon, enlarged 1500 times
[3] = tensile strength (load weight, displacement, stress, specific stress, strain at the maximum load point); settings: dyed fabric of polyester/cotton
[4] = bursting strength and softness of fabric; settings: dyed fabric of wool; for bursting strength percentage of variation / softness percentage of variation: versus before dry-cleaned
[5] = color fastness to abrasion, Example 8; settings: dyed fabric of nylon/polyacrylonitrile
[6] = bursting strength and softness of fabric; settings: undyed fabric of gray cotton goods
[7] = bursting strength and softness of fabric; settings: dyed fabric of polyester/rayon
[8] = bursting strength and softness of fabric; settings: undyed fabric of gray wool goods
[9] = bursting strength and softness of fabric; settings: dyed fabric of cotton
[10] = tensile strength (load weight, displacement, stress, specific stress, strain at the maximum load point); settings: dyed fabric of polyester/rayon
[11] = yellowness index, whiteness index and Lab values of undyed fabric, Example 9; settings: gray nylon goods
[12] = tensile strength (load weight, displacement, stress, specific stress, strain at the maximum load point); settings: dyed fabric of nylon

Compound: ClC(Cl)=C(Cl)Cl [perchloroethylene]
- the grade of the color fastness to abrasion, after the test ([1]; dry-cleaned five times): fourth to fifth grade
- the grade of the color fastness to abrasion, before the test ([1]; dry-cleaned five times): fourth to fifth grade
- the grade of the color fastness to abrasion, after the test ([1]; dry-cleaned one time): fourth to fifth grade
- the grade of the color fastness to abrasion, before the test ([1]; dry-cleaned one time): fourth to fifth grade
- the grade of the color fastness to abrasion, after the test ([1]; dry-cleaned two times): fourth to fifth grade
- the grade of the color fastness to abrasion, before the test ([1]; dry-cleaned two times): fourth to fifth grade
- surface of the dyed fabric observed by SEM [2]: flayed
- displacement ([3]; dry-cleaned five times): 27.93 mm
- load weight ([3]; dry-cleaned five times): 16.8 kg
- specific stress ([3]; dry-cleaned five times): 16.8 kg/L
- strain ([3]; dry-cleaned five times): 13.96%
- stress ([3]; dry-cleaned five times): 2.39 kg/mm^2
- displacement ([3]; dry-cleaned one time): 34.94 mm
- load weight ([3]; dry-cleaned one time): 22.83 kg
- specific stress ([3]; dry-cleaned one time): 22.83 kg/L
- strain ([3]; dry-cleaned one time): 17.47%
- stress ([3]; dry-cleaned one time): 3.25 kg/mm^2
- displacement ([3]; dry-cleaned two times): 32.96 mm
- load weight ([3]; dry-cleaned two times): 21.42 kg
- specific stress ([3]; dry-cleaned two times): 21.24 kg/L
- strain ([3]; dry-cleaned two times): 16.48%
- stress ([3]; dry-cleaned two times): 3.05 kg/mm^2
- bursting strength ([4]; dry-cleaned five times): 9.25 kg · f/cm^2
- softness ([4]; dry-cleaned five times): 2 cm
- bursting strength percentage of variation ([4]; dry-cleaned five times): −2.63%
- softness percentage of variation ([4]; dry-cleaned five times): −38.46%
- bursting strength ([4]; dry-cleaned one time): 9.25 kg · f/cm^2
- softness ([4]; dry-cleaned one time): 2.5 cm
- bursting strength percentage of variation ([4]; dry-cleaned one time): −2.63%
- softness percentage of variation ([4]; dry-cleaned one time): −23.08%
- bursting strength ([4]; dry-cleaned two times): 9 kg · f/cm^2
- softness ([4]; dry-cleaned two times): 2.2 cm
- bursting strength percentage of variation ([4]; dry-cleaned two times): −5.26%
- softness percentage of variation ([4]; dry-cleaned two times): −32.3%
- the grade of the color fastness to abrasion, after the test ([5]; dry-cleaned five times): fourth to fifth grade
- the grade of the color fastness to abrasion, before the test ([5]; dry-cleaned five times): fourth to fifth grade
- the grade of the color fastness to abrasion, after the test ([5]; dry-cleaned one time): fourth to fifth grade
- the grade of the color fastness to abrasion, before the test ([5]; dry-cleaned one time): fourth to fifth grade
- the grade of the color fastness to abrasion, after the test ([5]; dry-cleaned two times): fourth to fifth grade
- the grade of the color fastness to abrasion, before the test ([5]; dry-cleaned two times): fourth to fifth grade
- bursting strength ([6]; dry-cleaned five times): 11.5 kg · f/cm^2
- bursting strength percentage of variation ([6]; dry-cleaned five times): −14.81%
- softness ([6]; dry-cleaned five times): 4.1 cm
- softness percentage of variation ([6]; dry-cleaned five times): −24.07%
- bursting strength ([6]; dry-cleaned one time): 12.75 kg · f/cm^2
- bursting strength percentage of variation ([6]; dry-cleaned one time): −5.56%
- softness ([6]; dry-cleaned one time): 6.3 cm
- softness percentage of variation ([6]; dry-cleaned one time): 16.67%
- bursting strength ([6]; dry-cleaned two times): 12.75 kg · f/cm^2
- bursting strength percentage of variation ([6]; dry-cleaned two times): −5.56%
- softness ([6]; dry-cleaned two times): 5.1 cm
- softness percentage of variation ([6]; dry-cleaned two times): −5.56%
- bursting strength ([7]; dry-cleaned five times): 26 kg · f/cm^2
- bursting strength percentage of variation ([7]; dry-cleaned five times): 0%
- softness ([7]; dry-cleaned five times): 2.3 cm
- softness percentage of variation ([7]; dry-cleaned five times): −12.55%
- bursting strength ([7]; dry-cleaned one time): 25.5 kg · f/cm^2
- bursting strength percentage of variation ([7]; dry-cleaned one time): −1.92%
- softness ([7]; dry-cleaned one time): 2.6 cm
- softness percentage of variation ([7]; dry-cleaned one time): −1.14%
- bursting strength ([7]; dry-cleaned two times): 27.25 kg · f/cm^2
- bursting strength percentage of variation ([7]; dry-cleaned two times): 14.81%
- softness ([7]; dry-cleaned two times): 2.5 cm
- softness percentage of variation ([7]; dry-cleaned two times): −4.94%
- bursting strength ([8]; dry-cleaned five times): 22.25 kg · f/cm^2
- bursting strength percentage of variation ([8]; dry-cleaned five times): −0.76%
- softness ([8]; dry-cleaned five times): 3.9 cm
- softness percentage of variation ([8]; dry-cleaned five times): 2.63%
- bursting strength ([8]; dry-cleaned one time): 21.75 kg · f/cm^2
- bursting strength percentage of variation ([8]; dry-cleaned one time): −3%
- softness ([8]; dry-cleaned one time): 3.9 cm
- softness percentage of variation ([8]; dry-cleaned one time): 2.63%
- bursting strength ([8]; dry-cleaned two times): 21 kg · f/cm^2
- bursting strength percentage of variation ([8]; dry-cleaned two times): −6.33%
- softness ([8]; dry-cleaned two times): 4 cm
- softness percentage of variation ([8]; dry-cleaned two times): 5.26%
- bursting strength ([9]; dry-cleaned five times): 11.5 kg · f/cm^2
- bursting strength percentage of variation ([9]; dry-cleaned five times): −14.57%
- softness ([9]; dry-cleaned five times): 2.9 cm
- softness percentage of variation ([9]; dry-cleaned five times): 0.35%
- bursting strength ([9]; dry-cleaned one time): 12.25 kg · f/cm^2
- bursting strength percentage of variation ([9]; dry-cleaned one time): 4.97%
- softness ([9]; dry-cleaned one time): 3.4 cm
- softness percentage of variation ([9]; dry-cleaned one time): 58.14%
- bursting strength ([9]; dry-cleaned two times): 12 kg · f/cm^2
- bursting strength percentage of variation ([9]; dry-cleaned two times): 2.83%
- softness ([9]; dry-cleaned two times): 3 cm
- softness percentage of variation ([9]; dry-cleaned two times): 39.53%
- displacement ([10]; dry-cleaned five times): 57.82 mm
- load weight ([10]; dry-cleaned five times): 55.11 kg
- specific stress ([10]; dry-cleaned five times): 55.11 kg/L
- strain ([10]; dry-cleaned five times): 28.91%
- stress ([10]; dry-cleaned five times): 3.06 kg/mm^2
- displacement ([10]; dry-cleaned one time): 53.34 mm
- load weight ([10]; dry-cleaned one time): 45.57 kg
- specific stress ([10]; dry-cleaned one time): 45.57 kg/L
- strain ([10]; dry-cleaned one time): 26.67%
- stress ([10]; dry-cleaned one time): 2.53 kg/mm^2
- displacement ([10]; dry-cleaned two times): 57.02 mm
- load weight ([10]; dry-cleaned two times): 47.57 kg
- specific stress ([10]; dry-cleaned two times): 47.57 kg/L
- strain ([10]; dry-cleaned two times): 28.5%
- stress ([10]; dry-cleaned two times): 2.64 kg/mm^2
- L ([11]; dry-cleaned five times): 78.04
- a ([11]; dry-cleaned five times): 0.25
- b ([11]; dry-cleaned five times): −7.41
- c ([11]; dry-cleaned five times): 7.42
- h ([11]; dry-cleaned five times): 271.9
- ΔE ([11]; dry-cleaned five times): 8.49
- ΔL ([11]; dry-cleaned five times): −8.47
- Δa ([11]; dry-cleaned five times): 0.26
- Δb ([11]; dry-cleaned five times): −0.43
- Δc ([11]; dry-cleaned five times): 0.43
- Δh ([11]; dry-cleaned five times): 0.25
- L ([11]; dry-cleaned one time): 77.88
- a ([11]; dry-cleaned one time): 0.21
- b ([11]; dry-cleaned one time): −7.42
- c ([11]; dry-cleaned one time): 7.43
- h ([11]; dry-cleaned one time): 271.61
- ΔE ([11]; dry-cleaned one time): 8.65
- ΔL ([11]; dry-cleaned one time): −8.64
- Δa ([11]; dry-cleaned one time): 0.22
- Δb ([11]; dry-cleaned one time): −0.44
- Δc ([11]; dry-cleaned one time): 0.44
- Δh ([11]; dry-cleaned one time): 0.22
- L ([11]; dry-cleaned two times): 78.9
- a ([11]; dry-cleaned two times): 0.15
- b ([11]; dry-cleaned two times): −7.2
- c ([11]; dry-cleaned two times): 7.21
- h ([11]; dry-cleaned two times): 271.19
- ΔE ([11]; dry-cleaned two times): 7.62
- ΔL ([11]; dry-cleaned two times): −7.62
- Δa ([11]; dry-cleaned two times): 0.16
- Δb ([11]; dry-cleaned two times): −0.22
- Δc ([11]; dry-cleaned two times): 0.22
- Δh ([11]; dry-cleaned two times): 0.16
- displacement ([12]; dry-cleaned five times): 58.47 mm
- load weight ([12]; dry-cleaned five times): 33.15 kg
- specific stress ([12]; dry-cleaned five times): 33.15 kg/L
- strain ([12]; dry-cleaned five times): 38.98%
- stress ([12]; dry-cleaned five times): 4.72 kg/mm^2
- displacement ([12]; dry-cleaned one time): 54.12 mm
- load weight ([12]; dry-cleaned one time): 29.36 kg
- specific stress ([12]; dry-cleaned one time): 29.36 kg/L
- strain ([12]; dry-cleaned one time): 36.08%
- stress ([12]; dry-cleaned one time): 4.18 kg/mm^2
- displacement ([12]; dry-cleaned two times): 52.12 mm
- load weight ([12]; dry-cleaned two times): 31.84 kg
- specific stress ([12]; dry-cleaned two times): 31.84 kg/L
- strain ([12]; dry-cleaned two times): 34.74%
- stress ([12]; dry-cleaned two times): 4.53 kg/mm^2
